Test results from paper PMC4977824.

What was measured:
[1] = biological target: T1, DLG-1::GTA (DLG-1::GFP-2xTEV-Avi) (C. elegans) (UniProt G5ECY0); assay: condition: only DLG-1 biotinylated in the intestine, in epidermal cells or ubiquitously; affinity purification with mass spectrometry; as a1, only the purifications of DLG-1::GTA biotinylated in the intestine, in seam/hyp7 epidermal cells or ubiquitously (not the neuron-specific purification)
T1 sequence (chain, biotin on the Avi tag (in vivo, by BirA)): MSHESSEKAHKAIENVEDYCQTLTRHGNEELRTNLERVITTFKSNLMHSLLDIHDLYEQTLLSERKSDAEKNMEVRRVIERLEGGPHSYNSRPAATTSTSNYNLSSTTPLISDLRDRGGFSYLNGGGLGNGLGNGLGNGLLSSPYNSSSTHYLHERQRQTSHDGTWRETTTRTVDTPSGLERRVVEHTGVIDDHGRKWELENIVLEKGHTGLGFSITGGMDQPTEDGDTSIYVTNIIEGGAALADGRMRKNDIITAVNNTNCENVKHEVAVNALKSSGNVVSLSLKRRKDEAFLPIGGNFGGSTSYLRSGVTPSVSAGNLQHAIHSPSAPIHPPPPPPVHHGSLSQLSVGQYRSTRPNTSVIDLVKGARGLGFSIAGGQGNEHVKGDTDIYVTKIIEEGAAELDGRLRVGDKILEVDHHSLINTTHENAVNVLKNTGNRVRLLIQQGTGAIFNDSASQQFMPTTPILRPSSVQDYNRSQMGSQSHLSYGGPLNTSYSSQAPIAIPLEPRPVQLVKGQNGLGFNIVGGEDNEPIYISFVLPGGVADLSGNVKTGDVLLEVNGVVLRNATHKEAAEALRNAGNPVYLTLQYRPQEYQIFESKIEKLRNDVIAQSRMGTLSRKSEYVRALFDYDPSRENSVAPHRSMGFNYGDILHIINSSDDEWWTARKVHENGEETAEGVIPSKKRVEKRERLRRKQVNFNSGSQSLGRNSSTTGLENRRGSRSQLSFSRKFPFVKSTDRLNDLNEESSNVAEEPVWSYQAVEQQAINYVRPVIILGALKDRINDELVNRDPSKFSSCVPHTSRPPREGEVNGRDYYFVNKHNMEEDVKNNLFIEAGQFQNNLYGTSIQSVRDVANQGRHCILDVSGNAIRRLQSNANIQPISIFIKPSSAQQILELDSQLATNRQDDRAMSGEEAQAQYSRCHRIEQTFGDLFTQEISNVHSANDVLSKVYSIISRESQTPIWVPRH

[2] = biological target: T1, DLG-1::GTA (DLG-1::GFP-2xTEV-Avi) (C. elegans); assay: affinity purification with mass spectrometry; GTA-tagged bait biotinylated in vivo (BirA ubiquitous, intestine, seam/hyp7 or neurons) captured on streptavidin-coated beads from whole-animal lysate (L3/L4; 150 mM NaCl, 20 mM Tris pH 7.8, 5 mM EDTA, 1 % Triton X-100), 1.5 h at 4 °C, released by TEV protease, LC-MS/MS, SAINT scoring against GFP::TEV::Avi controls, triplicates

B1: MAPH-1.1 (endogenous) (protein, UniProt P91859 1-878)
chain: MPEEYIMSSKACIYVLGGAANTAALFDFDGVYILDGGFAEKNPGFVAHVRDVSAVLLAAPTLGNLGTTSALLEQGKPLPVFTNTKPFKTAKPGSSGEIAKAIQEANSKILSVAPPLFNPKYPANIIYQSAAKGVLSLYILAGDVKDAEVITKALAGGNEAEVEKAAAEHGTIGVLLWRPAMTDQSVVRVLISGTSSLSRIQQSLDKAAKSLPFLNVPTVKSKDALSDIPAPAVPRPVAGKPSARPATTTGTATRPTRPAVPAASAPRALTSRAPAGPSRPTTTRNAAPAPRTAVPSRATVLTKTAPASKAPTRAPVPARSAPAPPRGAPAKPAANTAKAEPIAQKKTVGKVQGTAPSKPAPAAPASAATSPAPAPEAPRRDPNNVTIVLDDSLSPEDFNQGSAPMDIVVIPPTPEPPRHEVAQATHPEESIIDAEDLAKAPLEVDDVANLADVEDEIPPPVDAFKKPEPHPEPNVSGGSEEDKIPEPVDAFKKPDPVELDDFDPLKPSHPEPSAPVVPSDHIIIATPDPELPDIVAAVPFVSPSPKGPNDGLVKLDDELEKIAPGFEEPLIPQAPRDDGTLAECSEEVSKLVEISMDTDNSAEVAADLAKAVGEVTQLSADLQNLGLDEKTDEYVRKLSNQMIEDATLPFTSALASSIVTSNGSETNGHGEQAHAAQNGGIDHQKEIPKHDLMQSRSSVIENGAAVQYEKTDPALDDVLNACAQESEKIDASHPDNLHMPAAPGSAAPAKPVKFARPYYFDVVTVPRNEKLETSVAADGLQEFISKVRSRNVILASKDISGEQLQAILCGKQTWCDSAHPCNVIPTHSSPMLLDFRQKNEEQFAANNLQFSIPVEKQRTTVSSDAGAIEYELARVDLL
binding [1]: no binding | binding [2]: binds

Results are given in words; binding and its absence hold for the method and conditions named. In cells and extracts the contact can be indirect. Here binding means that the protein was enriched with, or labelled near, the bait; the list need not be complete. For some assays here: A no says only that the protein was not detected with the bait. Sequences can lack the tags named with a protein.
